{
  "source": "patent US9801907B2",
  "about": "“Film-coated and/or granulated calcium-containing compounds and use therof in pharmaceutical compositions” (Takeda Nycomed AS, priority 2005, dated 2017)",
  "origin": "cited, not measured here",
  "conditions": "parts substance in parts water",
  "note": "At least one structure is not confirmed: it was looked up by name or label, or the drawing left a doubt.",
  "data": [
    {"compound": "OC[C@H]1O[C@@H]2O[C@H]3[C@H](O)[C@@H](O)[C@@H](O[C@H]4[C@H](O)[C@@H](O)[C@@H](O[C@H]5[C@H](O)[C@@H](O)[C@@H](O[C@H]6[C@H](O)[C@@H](O)[C@@H](O[C@H]7[C@H](O)[C@@H](O)[C@@H](O[C@H]1[C@H](O)[C@H]2O)O[C@@H]7CO)O[C@@H]6CO)O[C@@H]5CO)O[C@@H]4CO)O[C@@H]3CO", "note": "[α-cyclodextrin]", "values": [
      {"measurement": "Solubility in water at 20° C.", "value": 1, "unit": "in 7"}
    ]}
  ]
}
